The text below walks through data of US20210403593A1.

Residue numbers refer to the chain shown, from its start. No constants are given. Whether binding was seen depends on the method and setting.

Test [1] addresses T1, Chimera #10 (Homo sapiens (Human)) (UniProt P49961).
T1 sequence: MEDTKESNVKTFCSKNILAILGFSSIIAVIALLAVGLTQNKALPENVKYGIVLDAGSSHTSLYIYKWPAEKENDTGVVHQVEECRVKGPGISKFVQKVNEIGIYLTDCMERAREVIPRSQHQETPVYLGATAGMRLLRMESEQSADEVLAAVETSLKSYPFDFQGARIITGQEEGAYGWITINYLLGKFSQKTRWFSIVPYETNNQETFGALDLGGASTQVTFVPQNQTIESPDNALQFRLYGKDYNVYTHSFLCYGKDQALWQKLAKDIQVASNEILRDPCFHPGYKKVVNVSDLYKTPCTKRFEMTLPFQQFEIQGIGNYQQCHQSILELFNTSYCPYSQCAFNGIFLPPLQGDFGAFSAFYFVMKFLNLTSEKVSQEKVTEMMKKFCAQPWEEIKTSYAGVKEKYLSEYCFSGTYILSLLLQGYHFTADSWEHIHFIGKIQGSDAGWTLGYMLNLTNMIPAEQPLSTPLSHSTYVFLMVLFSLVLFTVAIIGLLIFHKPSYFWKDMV
As to the kind of experiment: FACS on CHO cells expressing the chimera.

Test [2] deals with T2, Chimera #13 (Homo sapiens (Human)) (UniProt P49961).
T2 sequence: T1 sequence with N99D, Q143E, S144L, E147R, A150D, A151V, K157S, S158N
As to the kind of experiment: FACS on CHO cells expressing the chimera.

Test [3] concerns the target T3, Chimera #14 (Homo sapiens (Human)) (UniProt P49961).
T3 sequence: T1 sequence with Q143E, S144L, E147R, A150D, A151V, E153S, K157S, S158N
As to the kind of experiment: FACS on CHO cells expressing the chimera.

The target in test [4] is Chimera #2 (human) (UniProt P49961). Kind of test: FACS on CHO cells expressing the chimera.
Test [5] has as its target T4, Chimera #9 (Homo sapiens (Human)) (UniProt P49961).
T4 sequence: T1 sequence with A150D, E153S
As to the kind of experiment: FACS on CHO cells expressing the chimera.

Test [6] has as its target Chimera #2 (human) (UniProt P49961). Kind of test: FACS dot plot, CHO cells, row 'Chimera 2'.
For test [7], the target named is T4, Chimera #9 (Homo sapiens (Human)). As to the kind of experiment: FACS dot plot, CHO cells, row 'Chimera 2/A150D'.
For test [8], the target named is T1, Chimera #10 (Homo sapiens (Human)). Kind of test: FACS dot plot, CHO cells, row 'Chimera 2/S153E'.
Test [9] has as its target T4, Chimera #9 (Homo sapiens (Human)). Kind of test: FACS on CHO cells; Chimera 2 with human D150 ([..]).
Test [10] addresses T1, Chimera #10 (Homo sapiens (Human)). As to the kind of experiment: FACS on CHO cells; Chimera 2 with human E153 ([..]).
In test [11] the target is T2, Chimera #13 (Homo sapiens (Human)). As to the kind of experiment: FACS on CHO cells; human CD39 with mouse D99 and T154.
The target of test [12] is T3, Chimera #14 (Homo sapiens (Human)). Kind of test: FACS on CHO cells; human CD39 with mouse S153 and T154.
The target of test [13] is Chimera #2 (human) (UniProt P49961). As to the kind of experiment: FACS on CHO cells; human M1-E142 + mouse Q143-S158 (…) + human Y159-V510.

B1: 31873 (antibody, human IgG4 S228P, kappa, V domains shown)
VH: QVQLVQSGAEVKKPGSSVKVSCKASGGTFSKYGISWVRQAPGQGLEWMGSIIPEFGIANYAQKFQGRVTITADESTSTAYMELSSLRSEDTAVYYCARESGGYRDHRLGVWGQGTMVTVSS
VL: EIVMTQSPATLSVSPGERATLSCRASQSVGSNLAWYQQKPGQAPRLLIYGASTRASGIPARFSGSGSGTEFTLTISSLQSEDFAVYYCQQYLLWPLTFGGGTKVEIKR
Consider B1, for which the binding entry is “no binding (tested: 15 µg/ml)” in [1]; “no binding (tested: 15 µg/ml)” in [2]; “no binding (tested: 15 µg/ml)” in [3]; “no binding (tested: 15 µg/ml)” in [4]; “no binding (tested: 15 µg/ml)” in test [5]; “no binding (tested: 15 ug/ml)” in test [6]. The binding entry in test [7], in test [8], in [9], in [10], in [11] and in test [12] was “no binding (tested: 15 ug/ml)” throughout. The binding entry in test [13] is given as “no binding (tested: 15 ug/ml)”.
